At least one structure is not confirmed: it was looked up by name or label, or the drawing left a doubt.
What was measured:
[1] = system: HRV16; assay: HRV-16 infection, assessment of virus load (TCID50) in MRC5 cells; type: cell-based, human rhinovirus 16; conditions: HRV16 0.1 MOI, 3 days
Protocol: Human rhinovirus RV16 (HRV16) was obtained from the American Type Culture Collection (Manassas, Va.). Viral stocks were generated by infecting Hela cells with HRV until 80% of the cells were cytopathic. MRC5 cells (human lung fibroblast, ATCC) were infected at 0.1 MOI (multiplicity of infection of 0.1) of HRV16 and incubated for 1 hr at 33° C. with gentle shaking to stimulate adsorption. The cells were then washed with PBS, fresh media (DMEM-5% FCS) was added and the cells were incubated for a further 72 hr. Supernatant (20 μL) was collected and 10-fold serial dilutions were prepared with DMEM containing 1% FCS. All titrations were performed by infecting confluent Hela cell monolayers with serially diluted supernatant (10^−1-10^−5) and then the cytopathic effect at each dilution 3 days after infection assessed by visual inspection. The cells were then stained with Crystal Violet for confirmation. The amount of virus required to infect 50% of Hela cells was calculated in each treatment as TCID50 (50% tissue culture infectious dose, U(unit)/20 μL). Compounds were added 2 hr before HRV16 infection and 1 hr after infection when non-infected HRV was washed out.

[2] = system: IRF-3; assay: HRV-16 induced activation of IRF-3 in BEAS2B cells; type: cell-based, human; conditions: after 2 hr, at 10 MOI
Protocol: The cells were then collected by scraping on ice and nuclear extracts were prepared using a nuclear protein extraction kit (ActiveMotif, […], Belgium). NFκB activity and IRF3 activity were then measured using the TransAMTM NFκB (p65) ELISA kit or the TransAMTM IRF3 ELISA kit.

Cc1nc(Nc2ncc(C(=O)Nc3c(C)cccc3Cl)s2)cc(N2CCN(CCO)CC2)n1 [Dasatinib]
HRV-16 virus load (extracellular) [1]: Modest inhibition
IRF-3 activation (HRV-16 induced) [2]: Activation
IRF-3 activation (HRV-16 induced) ([2]; listed as dasatinib): enhanced

— patent US20160045482A1, “UREIDO-PYRAZOLE DERIVATIVES” (Respivert Limited, priority 2010, published 2016)
